The text below walks through data of the supplement of paper PMC8551327.

This is one part of the list. No stated cut-off is given here; in the data, active = 1.25 or more and inactive = the rest. Repeats are few or missing, and single values can be far off.

This assay deals with Kcc2-LUC knock-in mouse primary cortical neurons (Kcc2 promoter reporter). The assay can be described thus: Kcc2 promoter-driven luciferase activity relative to vehicle control (fold of vehicle (ratio)); higher = stronger Kcc2 promoter activation (Kcc2 expression enhancer). To be noted: 100 nM; 48 h.
On to `CC1=C(CCC(=O)O)c2cc3nc(cc4[nH]c(cc5[nH]c(cc1n2)c(C)c5C(C)O)c(C)c4C(C)O)C(C)=C3CCC(=O)O` (stereo unspecified) [Hematoporphyrin], for which the “Kcc2 promoter-driven luciferase activity” value is inactive: 1.02. The figure for `O=C(Nc1cccc(C(F)(F)F)c1)C(=O)C(C(=O)c1ccc(Cl)c(Cl)c1)C1OC(=O)c2ccccc21` (stereo unspecified) is inactive: 0.93; for `CC(C=CC(O)=C1C(=O)CNC1=O)=CC(C)C1OC2(C)OC(C(=O)C3OC32C)C1C` (stereo unspecified) [Tirandamycin] it is inactive: 1.24. The figure for `Cc1ccc2c(c1)C1(C)OC(C=CC1=O)O2` (stereo unspecified) [2, 6,8-Dimethyl-] is inactive: 1.03. Consider `CN(C)C(=O)c1cccc(COc2ccc(N3C(N)=NC(N)=NC3(C)C)cc2Cl)c1`, for which the “Kcc2 promoter-driven luciferase activity” value was inactive: 1.16. `Nc1ccc(S(=O)(=O)Nc2cnc3c(Cl)cccc3n2)cc1` [Chlorsulfaquinoxaline]: the “Kcc2 promoter-driven luciferase activity” value was active: 1.39. On to `C/C=C/c1cc2c(c(=O)o1)C(=O)[C@@H](O)[C@H](C)O2` [Radicinin], for which the “Kcc2 promoter-driven luciferase activity” value was inactive: 0.4. The figure for `O=C1C=C(Nc2ccccc2C(=O)CC(=O)C(=O)Nc2ccc(Cl)cc2)c2ccccc2C1=O` is inactive: 1.13; for `C/C(NNC(=O)c1ccccc1O)=C1\C=Nc2ccccc2S1` it is active: 1.35.

Turning to `Cc1ccc(C(=O)Nc2ccc(S(=O)(=O)O)c3cc(S(=O)(=O)O)cc(S(=O)(=O)O)c23)cc1NC(=O)c1cccc(NC(=O)Nc2cccc(C(=O)Nc3cc(C(=O)Nc4ccc(S(=O)(=O)O)c5cc(S(=O)(=O)O)cc(S(=O)(=O)O)c45)ccc3C)c2)c1` [Suramin], the “Kcc2 promoter-driven luciferase activity” value was inactive: 0.85.

As for `Cc1ccccc1NC(=O)C(=O)C(C#N)c1ccccc1C` (stereo unspecified) [3-Cyano-N,3-bis(2-methylphenyl)-2-oxopropanamide], the “Kcc2 promoter-driven luciferase activity” value is inactive: 0.93.
